According to article PMC6123635, “Molecular basis for governing the morphology of type-I collagen fibrils by Osteomodulin” (Communications Biology, 2018):
Results are given in words; binding and its absence hold for the method and conditions named. Some binding calls cover weakened binding; strength is not graded here. For part of these data: Tags and fused reporters may be left off the sequences shown.

Sequences of proteins named here, by UniProt entry; tags and fusion partners are left off. A change or cut given only in a name is not applied to a line headed by its entry. Residues count along the entry.
UniProt P07585, residues 31-359: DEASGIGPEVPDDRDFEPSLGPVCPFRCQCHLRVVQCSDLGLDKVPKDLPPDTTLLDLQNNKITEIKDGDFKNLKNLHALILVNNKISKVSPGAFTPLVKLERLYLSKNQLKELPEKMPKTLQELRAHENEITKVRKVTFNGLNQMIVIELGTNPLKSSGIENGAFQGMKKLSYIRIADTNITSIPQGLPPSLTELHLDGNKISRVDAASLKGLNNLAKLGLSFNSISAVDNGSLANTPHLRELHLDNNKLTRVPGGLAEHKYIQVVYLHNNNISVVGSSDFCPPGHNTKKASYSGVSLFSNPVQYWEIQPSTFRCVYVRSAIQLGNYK
UniProt P02452: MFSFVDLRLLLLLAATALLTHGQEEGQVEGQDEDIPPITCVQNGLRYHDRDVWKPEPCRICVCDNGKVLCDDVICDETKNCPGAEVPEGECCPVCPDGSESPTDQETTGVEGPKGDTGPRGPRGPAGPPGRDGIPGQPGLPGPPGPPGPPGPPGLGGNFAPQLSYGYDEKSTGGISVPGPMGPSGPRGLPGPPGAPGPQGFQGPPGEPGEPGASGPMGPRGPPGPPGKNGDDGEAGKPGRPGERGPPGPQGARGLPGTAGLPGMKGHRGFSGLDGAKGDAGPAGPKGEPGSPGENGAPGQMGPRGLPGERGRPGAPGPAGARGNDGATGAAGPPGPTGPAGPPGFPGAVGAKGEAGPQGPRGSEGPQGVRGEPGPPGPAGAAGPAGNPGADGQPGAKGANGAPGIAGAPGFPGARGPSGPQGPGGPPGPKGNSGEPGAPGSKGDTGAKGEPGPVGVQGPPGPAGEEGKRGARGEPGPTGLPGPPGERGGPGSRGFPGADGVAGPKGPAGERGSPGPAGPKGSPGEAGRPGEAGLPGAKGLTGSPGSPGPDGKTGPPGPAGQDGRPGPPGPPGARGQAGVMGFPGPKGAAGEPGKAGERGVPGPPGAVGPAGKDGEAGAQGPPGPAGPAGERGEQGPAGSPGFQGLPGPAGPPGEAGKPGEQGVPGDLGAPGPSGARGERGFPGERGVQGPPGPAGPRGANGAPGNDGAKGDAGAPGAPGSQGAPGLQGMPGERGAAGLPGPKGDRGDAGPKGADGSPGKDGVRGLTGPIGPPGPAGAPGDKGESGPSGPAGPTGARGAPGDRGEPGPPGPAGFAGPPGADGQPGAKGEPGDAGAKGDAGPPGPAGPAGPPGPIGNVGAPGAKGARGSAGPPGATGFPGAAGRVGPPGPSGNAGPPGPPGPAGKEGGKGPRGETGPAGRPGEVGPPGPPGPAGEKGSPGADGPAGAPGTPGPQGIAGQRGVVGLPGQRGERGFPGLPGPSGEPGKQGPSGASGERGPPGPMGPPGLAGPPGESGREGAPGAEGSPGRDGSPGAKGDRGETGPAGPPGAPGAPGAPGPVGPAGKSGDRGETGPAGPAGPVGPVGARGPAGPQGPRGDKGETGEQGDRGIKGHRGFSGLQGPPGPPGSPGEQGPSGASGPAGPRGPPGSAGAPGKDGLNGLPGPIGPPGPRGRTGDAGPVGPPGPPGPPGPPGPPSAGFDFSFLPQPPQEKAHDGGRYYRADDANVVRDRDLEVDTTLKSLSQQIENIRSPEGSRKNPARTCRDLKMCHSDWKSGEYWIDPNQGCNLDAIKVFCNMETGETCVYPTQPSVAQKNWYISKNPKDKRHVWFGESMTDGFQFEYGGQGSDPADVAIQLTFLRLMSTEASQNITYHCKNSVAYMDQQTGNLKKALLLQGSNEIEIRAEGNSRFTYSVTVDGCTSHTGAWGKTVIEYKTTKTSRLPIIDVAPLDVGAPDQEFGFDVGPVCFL

Key:
[1] = target: Decorin (DCN), human full-length, recombinant (human) (UniProt P07585); experiment: SEC-MALS; room temperature, PBS pH 7.4, proteins at 25 µM loaded on Superdex 200; both purified
[2] = target: T1, Osteomodulin (OMD), human, recombinant with C-terminal FLAG-tag (human) (UniProt Q99983); experiment: SPR; OMD immobilised at around 3000 RU; collagen (0.125-3.5 µM) injected; both purified
T1 sequence: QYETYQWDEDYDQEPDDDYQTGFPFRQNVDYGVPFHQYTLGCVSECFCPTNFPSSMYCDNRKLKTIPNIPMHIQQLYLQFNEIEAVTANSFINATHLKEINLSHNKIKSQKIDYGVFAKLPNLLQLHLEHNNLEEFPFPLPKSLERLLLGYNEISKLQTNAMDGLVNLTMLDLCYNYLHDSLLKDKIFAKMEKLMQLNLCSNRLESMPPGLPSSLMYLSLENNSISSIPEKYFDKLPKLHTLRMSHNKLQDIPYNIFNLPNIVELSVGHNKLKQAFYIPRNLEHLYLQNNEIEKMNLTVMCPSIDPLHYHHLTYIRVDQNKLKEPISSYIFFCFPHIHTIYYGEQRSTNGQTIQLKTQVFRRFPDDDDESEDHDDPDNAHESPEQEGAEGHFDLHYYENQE

[3] = target: T1, Osteomodulin (OMD), human, recombinant with C-terminal FLAG-tag (human); experiment: SEC-MALS; room temperature, PBS pH 7.4, proteins at 25 µM loaded on Superdex 200; both purified
[4] = target: T2, Type-I collagen (VitroCol, human) (human, UniProt P02452 162-1218; P08123 80-1119); experiment: immunoelectron microscopy; collagen incubated 0 min, 10 min or 12 h at 37 °C in PBS pH 7.4, adsorbed on Ni grid; OMD put on the grids 30 min at room temperature; detected with anti-OMD mouse antibody and 5-nm gold anti-mouse IgG; both purified
[5] = target: T1, Osteomodulin (OMD), human, recombinant with C-terminal FLAG-tag (human); experiment: crystal structure; OMD 9.9 mg/ml, 200 mM ammonium phosphate dibasic, 24% PEG 3350, 20 °C; contacts between chains in the crystal judged with the PISA server; both purified
[6] = target: T2, Type-I collagen (VitroCol, human); experiment: SPR; collagen immobilised on CM5 chip at around 8000 RU; OMD or muteins injected (0.125-2 µM), 30 µl/min; PBS pH 7.4, 0.005% Tween-20, 20 °C; KD by steady state analysis; binding response at 2 µM; both purified

## Decorin (DCN), human full-length, recombinant (from UniProt P07585 31-359)
[1]
  binding: binds

## Type-I collagen (VitroCol, human) (from UniProt P02452 162-1218; P08123 80-1119) (complex)
[2]
  binding: binds

B1: Osteomodulin (OMD), human, recombinant with C-terminal FLAG-tag (natural protein, UniProt Q99983 21-421, looked up)
chain: QYETYQWDEDYDQEPDDDYQTGFPFRQNVDYGVPFHQYTLGCVSECFCPTNFPSSMYCDNRKLKTIPNIPMHIQQLYLQFNEIEAVTANSFINATHLKEINLSHNKIKSQKIDYGVFAKLPNLLQLHLEHNNLEEFPFPLPKSLERLLLGYNEISKLQTNAMDGLVNLTMLDLCYNYLHDSLLKDKIFAKMEKLMQLNLCSNRLESMPPGLPSSLMYLSLENNSISSIPEKYFDKLPKLHTLRMSHNKLQDIPYNIFNLPNIVELSVGHNKLKQAFYIPRNLEHLYLQNNEIEKMNLTVMCPSIDPLHYHHLTYIRVDQNKLKEPISSYIFFCFPHIHTIYYGEQRSTNGQTIQLKTQVFRRFPDDDDESEDHDDPDNAHESPEQEGAEGHFDLHYYENQE
notes: osteomodulin (OMD), human, without residues 1-20 (signal peptide), residues 21-421; Its own signal peptide was replaced by the sp1-2 signal peptide for secretion; Carbohydrate is modelled in the crystal structure; Monomer by SEC-MALS; also called full-length OMD; WT OMD; source: Sf9 cells, baculovirus, secreted; not shown: FLAG, C-terminal, kept
[3]
  binding: no binding (tested: 25 µM)
[4]
  binding: binds
[5]
  binding: no binding (tested: 9.9 mg/ml)

B2: OMD E284R/E303R (double mutant in the construct of full-length OMD) (natural protein, human, UniProt Q99983 21-421, looked up)
chain: QYETYQWDEDYDQEPDDDYQTGFPFRQNVDYGVPFHQYTLGCVSECFCPTNFPSSMYCDNRKLKTIPNIPMHIQQLYLQFNEIEAVTANSFINATHLKEINLSHNKIKSQKIDYGVFAKLPNLLQLHLEHNNLEEFPFPLPKSLERLLLGYNEISKLQTNAMDGLVNLTMLDLCYNYLHDSLLKDKIFAKMEKLMQLNLCSNRLESMPPGLPSSLMYLSLENNSISSIPEKYFDKLPKLHTLRMSHNKLQDIPYNIFNLPNIVRLSVGHNKLKQAFYIPRNLRHLYLQNNEIEKMNLTVMCPSIDPLHYHHLTYIRVDQNKLKEPISSYIFFCFPHIHTIYYGEQRSTNGQTIQLKTQVFRRFPDDDDESEDHDDPDNAHESPEQEGAEGHFDLHYYENQE
[6]
  binding: no binding (tested: 2 µM)
